The supplement of paper PMC10849652
Some of the results follow. Residues, ends and D or L forms follow the SMILES beside them. *: point of attachment. Cbz = O=C(OCc1ccccc1)*

Amino acid sequences for entries named in this document (tags omitted). A change or cut given only in a name is not applied to a line headed by its entry.
UniProt Q68D91: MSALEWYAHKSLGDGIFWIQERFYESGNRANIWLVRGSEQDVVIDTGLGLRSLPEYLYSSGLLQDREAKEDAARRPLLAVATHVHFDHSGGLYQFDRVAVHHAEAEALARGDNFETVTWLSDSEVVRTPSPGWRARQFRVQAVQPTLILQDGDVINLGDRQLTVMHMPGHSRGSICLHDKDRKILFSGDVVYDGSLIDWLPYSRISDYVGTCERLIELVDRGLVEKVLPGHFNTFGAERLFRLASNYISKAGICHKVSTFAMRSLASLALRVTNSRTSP
UniProt Q9NRN9: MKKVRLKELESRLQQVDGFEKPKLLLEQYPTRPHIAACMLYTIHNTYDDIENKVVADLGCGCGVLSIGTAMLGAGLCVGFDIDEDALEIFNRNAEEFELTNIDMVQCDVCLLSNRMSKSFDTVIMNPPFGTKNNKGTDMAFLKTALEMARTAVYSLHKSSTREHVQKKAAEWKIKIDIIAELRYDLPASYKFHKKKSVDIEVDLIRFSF
UniProt P56270: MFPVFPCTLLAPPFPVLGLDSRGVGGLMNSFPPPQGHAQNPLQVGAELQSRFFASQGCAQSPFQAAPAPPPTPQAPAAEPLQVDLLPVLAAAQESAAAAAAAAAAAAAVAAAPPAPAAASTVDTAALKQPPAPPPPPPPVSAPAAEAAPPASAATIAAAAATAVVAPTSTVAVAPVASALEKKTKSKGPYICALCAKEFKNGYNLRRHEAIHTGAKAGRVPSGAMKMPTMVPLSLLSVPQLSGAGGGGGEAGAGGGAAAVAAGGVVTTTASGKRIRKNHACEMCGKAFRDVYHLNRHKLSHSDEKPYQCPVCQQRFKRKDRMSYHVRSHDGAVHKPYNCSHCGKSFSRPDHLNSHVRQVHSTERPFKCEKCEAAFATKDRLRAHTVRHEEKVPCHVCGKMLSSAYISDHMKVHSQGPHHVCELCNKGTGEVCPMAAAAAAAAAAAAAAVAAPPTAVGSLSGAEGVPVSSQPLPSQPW
UniProt P55081: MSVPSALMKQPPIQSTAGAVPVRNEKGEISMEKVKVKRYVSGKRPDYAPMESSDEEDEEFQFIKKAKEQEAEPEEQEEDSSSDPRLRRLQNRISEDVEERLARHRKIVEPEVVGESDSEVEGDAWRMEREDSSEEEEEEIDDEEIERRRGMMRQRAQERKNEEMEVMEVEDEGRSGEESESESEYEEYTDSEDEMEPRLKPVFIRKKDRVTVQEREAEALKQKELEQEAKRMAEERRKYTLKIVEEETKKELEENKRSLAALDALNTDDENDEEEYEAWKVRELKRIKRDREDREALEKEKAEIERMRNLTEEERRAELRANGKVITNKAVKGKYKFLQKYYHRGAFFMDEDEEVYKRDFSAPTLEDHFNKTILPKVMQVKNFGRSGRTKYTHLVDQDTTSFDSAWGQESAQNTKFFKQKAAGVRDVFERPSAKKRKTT
UniProt Q9NPJ6: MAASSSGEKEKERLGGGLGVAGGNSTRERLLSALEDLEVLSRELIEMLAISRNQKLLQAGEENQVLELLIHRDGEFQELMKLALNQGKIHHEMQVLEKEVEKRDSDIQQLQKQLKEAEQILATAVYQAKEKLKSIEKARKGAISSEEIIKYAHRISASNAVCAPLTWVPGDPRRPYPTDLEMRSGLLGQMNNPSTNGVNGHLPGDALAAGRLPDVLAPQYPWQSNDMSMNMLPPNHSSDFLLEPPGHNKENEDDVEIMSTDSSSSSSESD
UniProt O43513: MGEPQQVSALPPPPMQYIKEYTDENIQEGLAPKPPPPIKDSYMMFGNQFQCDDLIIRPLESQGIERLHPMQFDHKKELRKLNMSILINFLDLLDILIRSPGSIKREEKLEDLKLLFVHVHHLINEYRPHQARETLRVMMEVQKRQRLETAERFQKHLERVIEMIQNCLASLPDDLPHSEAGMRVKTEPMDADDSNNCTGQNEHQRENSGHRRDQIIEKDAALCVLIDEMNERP
UniProt P61244, whole entry, looked up: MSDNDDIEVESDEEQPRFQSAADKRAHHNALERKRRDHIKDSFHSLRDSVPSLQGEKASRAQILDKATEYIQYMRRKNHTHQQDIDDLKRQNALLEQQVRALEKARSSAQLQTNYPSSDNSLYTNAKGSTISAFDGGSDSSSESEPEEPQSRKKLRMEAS
UniProt Q86W50: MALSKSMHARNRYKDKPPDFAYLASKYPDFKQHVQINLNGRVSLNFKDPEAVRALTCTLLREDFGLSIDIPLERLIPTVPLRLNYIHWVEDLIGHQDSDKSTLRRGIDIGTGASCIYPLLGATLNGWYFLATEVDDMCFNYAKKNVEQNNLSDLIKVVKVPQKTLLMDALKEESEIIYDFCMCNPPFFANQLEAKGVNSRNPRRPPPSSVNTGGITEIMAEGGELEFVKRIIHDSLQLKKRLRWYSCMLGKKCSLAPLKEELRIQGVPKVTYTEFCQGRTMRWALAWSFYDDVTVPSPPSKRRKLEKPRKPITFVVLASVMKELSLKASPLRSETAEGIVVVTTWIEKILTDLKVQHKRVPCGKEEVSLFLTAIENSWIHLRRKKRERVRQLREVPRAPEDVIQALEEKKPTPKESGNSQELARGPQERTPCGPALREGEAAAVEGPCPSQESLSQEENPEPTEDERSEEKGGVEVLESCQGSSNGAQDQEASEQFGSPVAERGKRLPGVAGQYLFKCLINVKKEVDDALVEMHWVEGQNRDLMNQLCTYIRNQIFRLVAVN
UniProt O95983: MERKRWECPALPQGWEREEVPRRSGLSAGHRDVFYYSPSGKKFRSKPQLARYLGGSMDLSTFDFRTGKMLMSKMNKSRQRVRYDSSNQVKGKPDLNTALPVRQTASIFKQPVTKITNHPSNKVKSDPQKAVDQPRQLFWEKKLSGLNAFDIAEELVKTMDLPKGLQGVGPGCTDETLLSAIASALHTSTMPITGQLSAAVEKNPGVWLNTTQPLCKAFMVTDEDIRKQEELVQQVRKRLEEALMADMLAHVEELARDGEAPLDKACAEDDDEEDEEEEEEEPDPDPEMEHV
UniProt Q09328: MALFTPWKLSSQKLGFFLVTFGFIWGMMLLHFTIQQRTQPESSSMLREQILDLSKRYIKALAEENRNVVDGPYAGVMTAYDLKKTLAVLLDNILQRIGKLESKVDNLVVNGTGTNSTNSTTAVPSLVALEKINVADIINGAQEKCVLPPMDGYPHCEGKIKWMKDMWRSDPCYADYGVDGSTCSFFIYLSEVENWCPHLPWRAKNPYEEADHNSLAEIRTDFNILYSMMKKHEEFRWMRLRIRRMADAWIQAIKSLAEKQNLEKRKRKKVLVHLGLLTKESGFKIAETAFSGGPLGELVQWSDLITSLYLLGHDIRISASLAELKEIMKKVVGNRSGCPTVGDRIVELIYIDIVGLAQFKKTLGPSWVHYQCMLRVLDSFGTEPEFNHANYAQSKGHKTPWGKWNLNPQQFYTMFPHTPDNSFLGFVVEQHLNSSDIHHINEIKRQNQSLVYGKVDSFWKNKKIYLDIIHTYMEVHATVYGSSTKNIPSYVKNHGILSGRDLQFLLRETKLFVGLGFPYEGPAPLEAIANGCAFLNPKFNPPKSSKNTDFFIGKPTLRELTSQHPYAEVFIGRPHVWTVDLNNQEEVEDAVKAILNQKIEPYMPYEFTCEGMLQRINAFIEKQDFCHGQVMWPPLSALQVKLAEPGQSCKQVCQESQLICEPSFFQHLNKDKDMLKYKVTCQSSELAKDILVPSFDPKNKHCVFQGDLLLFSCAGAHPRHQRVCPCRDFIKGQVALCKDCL
UniProt Q86U44, whole entry, looked up: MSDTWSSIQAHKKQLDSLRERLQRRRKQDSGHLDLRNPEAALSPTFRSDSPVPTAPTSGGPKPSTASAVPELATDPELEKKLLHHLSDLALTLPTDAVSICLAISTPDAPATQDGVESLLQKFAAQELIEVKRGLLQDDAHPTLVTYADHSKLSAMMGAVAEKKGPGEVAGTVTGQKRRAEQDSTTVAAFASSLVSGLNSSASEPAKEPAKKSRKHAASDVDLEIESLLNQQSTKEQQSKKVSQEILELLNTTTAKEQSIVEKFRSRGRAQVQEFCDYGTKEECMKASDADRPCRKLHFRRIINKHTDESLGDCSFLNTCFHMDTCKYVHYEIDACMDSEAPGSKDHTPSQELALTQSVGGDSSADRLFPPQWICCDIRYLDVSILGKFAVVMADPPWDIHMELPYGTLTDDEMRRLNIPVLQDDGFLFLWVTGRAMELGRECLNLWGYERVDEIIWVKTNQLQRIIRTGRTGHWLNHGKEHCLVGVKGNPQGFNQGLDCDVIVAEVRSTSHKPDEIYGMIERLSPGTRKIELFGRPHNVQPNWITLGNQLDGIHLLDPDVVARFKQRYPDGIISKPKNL
UniProt Q9BQP7: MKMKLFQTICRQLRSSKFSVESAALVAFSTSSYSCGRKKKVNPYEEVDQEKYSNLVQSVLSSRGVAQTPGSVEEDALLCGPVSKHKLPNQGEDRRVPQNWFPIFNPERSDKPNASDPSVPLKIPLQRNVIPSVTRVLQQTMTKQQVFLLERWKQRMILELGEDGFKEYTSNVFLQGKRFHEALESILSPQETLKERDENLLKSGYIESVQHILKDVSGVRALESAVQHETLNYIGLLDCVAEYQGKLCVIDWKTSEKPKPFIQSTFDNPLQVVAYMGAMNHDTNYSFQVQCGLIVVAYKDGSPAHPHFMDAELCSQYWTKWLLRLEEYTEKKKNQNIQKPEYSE
UniProt Q9BV79: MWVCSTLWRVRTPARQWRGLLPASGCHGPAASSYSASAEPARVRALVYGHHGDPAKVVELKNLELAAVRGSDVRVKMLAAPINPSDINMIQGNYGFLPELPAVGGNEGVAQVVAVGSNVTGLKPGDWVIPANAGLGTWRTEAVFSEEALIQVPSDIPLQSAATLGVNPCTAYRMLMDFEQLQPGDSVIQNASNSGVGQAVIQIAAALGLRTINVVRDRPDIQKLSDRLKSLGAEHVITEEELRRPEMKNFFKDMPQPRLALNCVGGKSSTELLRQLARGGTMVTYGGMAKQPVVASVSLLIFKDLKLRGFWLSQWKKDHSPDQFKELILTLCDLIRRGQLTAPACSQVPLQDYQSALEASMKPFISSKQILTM
UniProt Q96N66: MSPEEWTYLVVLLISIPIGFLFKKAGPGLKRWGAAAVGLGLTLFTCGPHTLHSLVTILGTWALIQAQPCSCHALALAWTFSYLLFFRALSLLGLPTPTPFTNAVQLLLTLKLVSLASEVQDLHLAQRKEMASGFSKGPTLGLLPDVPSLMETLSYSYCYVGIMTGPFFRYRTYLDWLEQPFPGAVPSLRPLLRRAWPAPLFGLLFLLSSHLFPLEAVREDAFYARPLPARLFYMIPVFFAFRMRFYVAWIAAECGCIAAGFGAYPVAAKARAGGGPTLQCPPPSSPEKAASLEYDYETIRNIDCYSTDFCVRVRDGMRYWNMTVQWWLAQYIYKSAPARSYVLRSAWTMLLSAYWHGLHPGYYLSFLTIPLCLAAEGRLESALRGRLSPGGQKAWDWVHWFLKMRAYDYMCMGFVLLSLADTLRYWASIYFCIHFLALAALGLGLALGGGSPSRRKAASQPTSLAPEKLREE

Key:
Assay in all cases: log2 fold change, soluble protein after heating vs DMSO (PISA); higher = thermal stabilisation; K562 cells, 10 uM, 30 min; active = over 0.2 and 3.5 SD of the protein, either way, in both replicates (recomputed)
[1] = compound: C#Cc1cccc(Nc2ncnc3cc(OCCOC)c(OCCOC)cc23)c1 [erlotinib]
Outline: (§1)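 K562 cells at 2×10^6 cells/mL were treated with 10 μM compound for 30 min. Aliquots were heated for 3 min across 48°C-58°C, pooled, and extracted in PBS with 0.5% NP-40 at 4°C; soluble protein was the supernatant after 21,000xg for 90 min. Soluble protein was quantified by TMTpro 16plex LC-MS/MS with channel sums equalised, and reported as log2 fold change in thermal stability against DMSO controls, with values from duplicates.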

[2] = compound: C/C(=N\NC(=O)C1=CC(=CC=C1)S(=O)(=O)N2CCOCC2)/C3=C(C=CC(=C3)Cl)O
Outline: as §1

[3] = compound: C1=CC(=C(C=C1Cl)C2=NC3=NC=CN=C3C(=N2)NC4=CC=NC=C4)F
Outline: as §1

[4] = compound: C1=CC(=CC=C1C2=NC3=C(N2)C=C(C=C3)C(=O)N)OC4=CC=C(C=C4)Cl
Outline: as §1

[5] = compound: C1=CC2=C(C=CC(=C2)/C=C\3/C(=O)NC(=NCC4=CC=CS4)S3)N=C1
Outline: as §1

[6] = compound: C1=CC2=NC=CN=C2C=C1/C=C/3\C(=O)NC(=O)S3
Outline: as §1

[7] = compound: C1=CC=C(C=C1)C2=NC(=C(N2)C3=CC=NC=C3)C4=CC(=C(C=C4)Cl)O
Outline: as §1

[8] = compound: C1=CC=C2C(=C1)C3=NNC4=CC=CC(=C43)C2=O
Outline: as §1

[9] = compound: C1CCN(C1)C(=O)NC2=CC=CC(=C2)NC3=NC=C(C(=N3)NCCC4=CN=CN4)Br
Outline: as §1

[10] = compound: C1CN(CCC1(CC2=CC=C(C=C2)Cl)N)C3=NC=NC4=C3C=CN4
Outline: as §1

[11] = compound: C1COCCN1CCN2C3=CC=CC=C3N=C2NC(=O)C4=CC(=CC=C4)[N+](=O)[O-] [IRAK-1-4 Inhibitor I]
Outline: as §1

[12] = compound: C=CC(=O)N1CCC[C@@H](n2nc(-c3ccc(Oc4ccccc4)cc3)c3c(N)ncnc32)C1 [ibrutinib]
Outline: as §1

[13] = compound: CC(=O)c1cnc2ccc(-c3cc(Cl)c(O)c(Cl)c3)nc2c1N[C@H]1CC[C@H](CN(C)C)CC1
Outline: as §1

[14] = compound: CC(C)(C)Cn1c(N)nc2ccc(-c3[nH]c(C(C)(C)C)nc3-c3ccc(F)cc3)nc21 [ralimetinib]
Outline: as §1

[15] = compound: CC(C)(O)CC(=O)NCCn1ccc2ncnc(Nc3ccc(Oc4cccc(C(F)(F)F)c4)c(Cl)c3)c21
Outline: as §1

[16] = compound: CC(C)C1=C2N=C(C=C(N2N=C1)NCC3=CC=CC=C3)NCCCCCCN
Outline: as §1

[17] = compound: CC(C)C[C@@H](C=O)NC(=O)[C@H](CC(C)C)NC(=O)[C@H](CC(C)C)NC(=O)OCc1ccccc1
Outline: as §1

[18] = compound: CC(C)N(C[C@H]1O[C@@H](n2cnc3c(N)ncnc32)[C@H](O)[C@@H]1O)[C@H]1C[C@@H](CCc2nc3cc(C(C)(C)C)ccc3[nH]2)C1 [pinometostat]
Outline: as §1

[19] = compound: CC1=C(C(CC(=O)N1)C2=CC=C(C=C2)C(F)(F)F)C(=O)NC3=C(C=C4C(=C3)C=NN4)F
Outline: as §1

[20] = compound: CC1=C(C2=C(C=C1)C(=O)C3=CC=CC=C3N2CCCN)C
Outline: as §1

Measured: log2 fold change

MBLAC2 (UniProt Q68D91)
inactive: [1] 0.04 | [2] -0.009 | [3] -0.033 | [4] 0.051 | [5] 0.098 | [6] 0.047 | [7] 0.01 | [8] -0.032 | [9] -0.097 | [10] 0.017 | [11] -0.015 | [12] 0.002 | [13] 0.002 | [14] -0.019 | [15] 0.032 | [16] 0.093 | [17] -0.028 | [18] 0.001 | [19] 0.053 | [20] 0.03

METTL5 (UniProt Q9NRN9)
inactive: [1] 0.035 | [2] 0.021 | [3] -0.011 | [4] 0.021 | [5] -0.041 | [6] 0.007 | [7] -0.048 | [8] 0.01 | [9] 0.003 | [10] 0.071 | [11] 0.02 | [12] -0.006 | [13] 0.046 | [14] -0.044 | [15] 0.027 | [16] 0.078 | [17] 0.005 | [18] -0.041 | [19] 0.005 | [20] -0.031

MAZ isoform 2 (UniProt P56270)
inactive: [1] -0.102 | [2] -0.162 | [3] -0.25 | [4] -0.02 | [5] -0.075 | [6] -0.083 | [7] 0.02 | [8] 0.058 | [9] -0.034 | [10] -0.027 | [11] -0.085 | [12] 0.062 | [13] 0.061 | [14] 0.188 | [15] 0.059 | [16] 0.04 | [17] 0.1 | [18] 0.177 | [19] -0.006 | [20] -0.247

METAP1 (UniProt P53582)
inactive: [1] 0.036 | [2] -0.049 | [3] 0.025 | [4] -0.017 | [5] 0.027 | [6] 0.095 | [7] -0.003 | [8] -0.013 | [9] 0.005 | [10] 0.069 | [11] 0.001 | [12] 0.043 | [13] 0.042 | [14] -0.019 | [15] -0.001 | [16] 0.204 | [17] -0.024 | [18] -0.014 | [19] 0.031 | [20] 0.087

MFAP1 (UniProt P55081)
inactive: [1] -0.007 | [2] -0.069 | [3] -0.038 | [4] 0.002 | [5] -0.039 | [6] 0.047 | [7] -0.098 | [8] -0.054 | [9] -0.038 | [10] 0.044 | [11] 0.035 | [12] 0.027 | [13] 0.078 | [14] -0.046 | [15] 0.045 | [16] 0.008 | [17] 0.106 | [18] 0.004 | [19] 0.051 | [20] -0.138

MED4 (UniProt Q9NPJ6)
inactive: [1] 0.076 | [2] -0.067 | [3] 0.017 | [4] -0.01 | [5] 0.031 | [6] 0.007 | [7] -0.053 | [8] -0.066 | [9] -0.031 | [10] -0.009 | [11] -0.039 | [12] 0.009 | [13] -0.112 | [14] 0 | [15] 0.043 | [16] -0.032 | [17] 0.079 | [18] 0 | [19] 0.063 | [20] 0.036

MED7 (UniProt O43513)
inactive: [1] 0.065 | [2] -0.109 | [3] 0.041 | [4] 0.053 | [5] 0.065 | [6] 0.015 | [7] 0.017 | [8] -0.152 | [9] -0.114 | [10] 0.039 | [11] 0.042 | [12] 0.042 | [13] 0.001 | [14] 0.113 | [15] 0.022 | [16] -0.078 | [17] -0.068 | [18] 0.113 | [20] 0.119
active: [19] 0.403

MAX (UniProt P61244)
inactive: [1] -0.02 | [2] -0.012 | [3] -0.094 | [4] 0.019 | [5] -0.029 | [6] 0.02 | [7] -0.052 | [8] -0.05 | [9] 0.03 | [10] 0.045 | [11] 0.032 | [12] 0.024 | [13] -0.185 | [14] -0.044 | [15] 0.132 | [16] 0.157 | [17] 0.026 | [18] -0.06 | [19] 0.016 | [20] 0.099

METTL16 (UniProt Q86W50)
inactive: [1] 0 | [2] 0.021 | [3] -0.004 | [4] 0.002 | [5] 0.013 | [6] 0.035 | [7] 0.034 | [8] -0.097 | [9] -0.053 | [10] 0.012 | [11] 0.01 | [12] -0.044 | [13] -0.01 | [14] 0.031 | [15] -0.034 | [16] -0.027 | [17] -0.015 | [18] 0.04 | [19] 0 | [20] -0.207

MBD3 (UniProt O95983)
inactive: [1] -0.023 | [2] 0.037 | [3] -0.035 | [4] -0.005 | [5] -0.022 | [6] 0.037 | [7] -0.014 | [8] -0.079 | [9] -0.004 | [10] 0.045 | [11] 0.009 | [12] 0.047 | [13] -0.05 | [14] 0.05 | [15] 0.023 | [16] -0.082 | [17] -0.041 | [18] 0.057 | [19] 0.103 | [20] -0.085

MGAT5 (UniProt Q09328)
inactive: [1] -0.003 | [2] -0.026 | [3] -0.187 | [4] 0.012 | [5] 0.042 | [6] -0.028 | [7] -0.038 | [8] 0 | [9] -0.14 | [10] 0.012 | [11] 0.004 | [12] -0.001 | [13] -0.01 | [14] -0.022 | [15] -0.044 | [16] -0.036 | [17] -0.009 | [18] 0.047 | [19] -0.024 | [20] 0.05

METTL3 (UniProt Q86U44)
inactive: [1] -0.015 | [2] 0.053 | [3] 0.088 | [4] 0.039 | [5] 0.035 | [6] 0.028 | [7] -0.022 | [8] 0.006 | [9] -0.041 | [10] 0.06 | [11] 0.017 | [12] 0.008 | [13] -0.019 | [14] -0.008 | [15] -0.019 | [16] 0.013 | [17] -0.001 | [18] 0.054 | [19] -0.006 | [20] 0.111

MGME1 (UniProt Q9BQP7)
inactive: [1] 0.017 | [2] 0.077 | [3] 0.054 | [4] 0.023 | [5] -0.026 | [6] 0.038 | [7] 0.035 | [8] 0.019 | [9] -0.005 | [10] 0.013 | [11] 0.058 | [12] 0.024 | [13] 0.025 | [14] -0.009 | [15] -0.009 | [16] -0.052 | [17] -0.002 | [18] -0.004 | [19] -0.001 | [20] -0.029

2 neighbouring entries from above, for reference:
METTL3 (UniProt Q86U44)
inactive: [1] -0.015 | [2] 0.053 | [3] 0.088 | [4] 0.039 | [5] 0.035 | [6] 0.028 | [7] -0.022 | [8] 0.006 | [9] -0.041 | [10] 0.06 | [11] 0.017 | [12] 0.008 | [13] -0.019 | [14] -0.008 | [15] -0.019 | [16] 0.013 | [17] -0.001 | [18] 0.054 | [19] -0.006 | [20] 0.111

MGME1 (UniProt Q9BQP7)
inactive: [1] 0.017 | [2] 0.077 | [3] 0.054 | [4] 0.023 | [5] -0.026 | [6] 0.038 | [7] 0.035 | [8] 0.019 | [9] -0.005 | [10] 0.013 | [11] 0.058 | [12] 0.024 | [13] 0.025 | [14] -0.009 | [15] -0.009 | [16] -0.052 | [17] -0.002 | [18] -0.004 | [19] -0.001 | [20] -0.029

Carrying on.

MECR (UniProt Q9BV79)
inactive: [1] 0.004 | [2] 0.059 | [3] 0.123 | [4] -0.02 | [5] -0.026 | [6] -0.065 | [7] 0.028 | [8] -0.024 | [9] 0.006 | [10] -0.004 | [11] 0.027 | [12] 0.027 | [13] -0.044 | [14] -0.016 | [15] -0.012 | [16] -0.001 | [17] 0.058 | [18] -0.028 | [19] -0.082 | [20] 0.033

MEAF6 isoform 3 (UniProt Q9HAF1)
inactive: [1] -0.028 | [2] -0.039 | [3] -0.129 | [4] 0.013 | [5] -0.04 | [6] -0.007 | [7] -0.088 | [8] -0.009 | [9] -0.065 | [10] 0.041 | [11] -0.027 | [12] 0.115 | [13] -0.098 | [14] 0.07 | [15] 0.072 | [16] 0.02 | [17] 0.055 | [18] 0.024 | [19] -0.019 | [20] 0.085

MBOAT7 (UniProt Q96N66)
inactive: [1] 0.018 | [2] 0.025 | [3] 0.064 | [4] 0.022 | [5] 0.036 | [6] 0.027 | [7] 0.016 | [8] -0.014 | [9] 0.021 | [10] 0.084 | [11] 0 | [12] 0.008 | [13] 0.041 | [14] -0.068 | [15] 0 | [16] 0.041 | [17] -0.06 | [18] -0.025 | [19] 0.006 | [20] 0.033
